Source: the supplement of paper PMC11348887
Structures can show the parent of a compound that is named as a salt. Some of the results follow. Small differences around the control level are noise. Where a SMILES comes first, the peptide text is derived from it. [ ]: non-standard residue; d: D form. pGlu = O=C1CC[C@@H](C(=O)O)N1; Thz = O=C(O)[C@@H]1CSCN1

Key:
Conditions in all cases: 5 µM; treatment: days 7-14 after plating, readout day 21
[1] = system: hPSC-derived cortical neurons (WA09); test: nucleus area z-score vs screen plate; higher = larger nuclei (more mature)
[2] = system: hPSC-derived cortical neurons (WA09); test: total neurite length per nucleus (MAP2) z-score; higher = more neurite growth
[3] = system: hPSC-derived cortical neurons (WA09); test: nucleus roundness z-score vs screen plate; higher = rounder nuclei (more mature)
[4] = system: hPSC-derived cortical neurons (WA09); test: KCl-induced FOS+/EGR-1+ double-positive nuclei fraction z-score (KCl minus unstimulated); higher = stronger activity-induced IEG response

Row | Compound | nucleus area z-score [1] | total neurite length per nucleus (z-score) [2] | nucleus roundness z-score [3] | KCl-induced FOS+/EGR-1+ double-positive nuclei fraction z-score [4]
1 | N#CC(=C(/N)Sc1ccccc1N)/C(C#N)=C(\N)Sc1ccccc1N | -0.169 | -0.234 | -0.0467 | -0.51
2 | O=C1C(CC[S+]([O-])c2ccccc2)C(=O)N(c2ccccc2)N1c1ccccc1 (racemic) [(+/-)-Sulfinpyrazone] | 0.815 | 0.519 | 0.168 | 0.0282
3 | O=C(c1cn(Cc2cncn2Cc2ccc(Br)cc2)cc1-c1cccc2ccccc12)N1CCOCC1 | -2.79 | 0.548 | 1.43 | 0.256
4 | CC1CC(OC(=O)C(O)c2ccccc2)CC(C)(C)C1 (stereo not drawn) [Cyclandelate] | 0.33 | 0.494 | 0.129 | -0.457
5 | CN1C(CCl)Nc2cc(Cl)c(S(N)(=O)=O)cc2S1(=O)=O (stereo not drawn) [Methyclothiazide] | -4.09 | -1.74 | -3.62 | -2.94
6 | O=c1cc[nH]c(=S)[nH]1 [2-Thiouracil] | 1.21 | 0.492 | 0.114 | 1.27
7 | CCN1CCN(C(=O)N[C@@H](C(=O)N[C@@H]2C(=O)N3C(C(=O)O)=C(CSc4nnnn4C)CS[C@H]23)c2ccc(O)cc2)C(=O)C1=O [Cefoperazone] | 0.61 | 0.266 | 0.376 | -0.381
8 | O=C1CC[C@@H](C(=O)N2CSC[C@H]2C(=O)O)N1 [Pidotimod] ([pGlu]-[Thz]-OH) | 0.0919 | 0.884 | 0.319 | 0.496
9 | C=C[C@]1(C)C[C@@H](OC(=O)CSC(C)(C)CNC(=O)[C@H](N)C(C)C)[C@]2(C)[C@H](C)CC[C@]3(CCC(=O)[C@H]32)[C@@H](C)[C@@H]1O [Valnemulin HCl] | -0.387 | 0.221 | -0.849 | 0.906
10 | C[C@@H]1COCCN1c1cc(C2([S@](C)(=N)=O)CC2)nc(-c2cc[nH]c3nccc2-3)n1 | -0.623 | -1.44 | -1.68 | -0.309
11 | Cc1nnc(C(C)C)n1C1C[C@H]2CC[C@@H](C1)N2CC[C@H](NC(=O)C1CCC(F)(F)CC1)c1ccccc1 (stereo in doubt) [Maraviroc] | 0.561 | -0.374 | -0.61 | -1.35
12 | COc1cc(Nc2ncc3c(n2)-c2ccc(Cl)cc2C(c2c(F)cccc2OC)=NC3)ccc1C(=O)O [Alisertib (MLN8237)] | -6.36 | -0.946 | -2.38 | -0.0482
13 | CCn1c2ccccc2c2cc(Nc3ccnc(NCCCN4CCOCC4)n3)ccc21 | -13.5 | -3.77 | 0.81 | -0.571
14 | Nc1nnc(-c2cccc(Cl)c2Cl)c(N)n1 [Lamotrigine] | 0.716 | -0.557 | 0.363 | 0.378
15 | Nc1cc(C(F)(F)F)c(-c2cc(N3CCOCC3)nc(N3CCOCC3)n2)cn1 [BKM120 (NVP-BKM120_ Buparlisib)] | -7.13 | -2.34 | -0.417 | -0.73
16 | CCN(Cc1ccncc1)C(=O)C(CO)c1ccccc1 (stereo not drawn) [Tropicamide] | 0.738 | 1.27 | 0.0845 | 0.43
17 | Cc1ccc(-n2nc(C(C)(C)C)cc2NC(=O)NCc2cc(F)ccc2Oc2ccc3c(cnn3CCO)c2)cc1 [Pexmetinib (ARRY-614)] | -0.308 | 0.713 | 0.623 | -0.524
18 | CC(C)(C)[N+]([O-])=Cc1ccc(S(=O)(=O)O)cc1S(=O)(=O)O | 0.483 | 1.18 | 0.807 | 0.469
19 | Nc1nc(-c2nn(Cc3ccccc3F)c3ncccc23)ncc1C1CC1 | 0.752 | 0.289 | 0.792 | -0.68
20 | Cc1cc(N2CCOCC2)ccc1Nc1nc(NC2CCCCC2)c2[nH]cnc2n1 | -0.547 | 0.00909 | -0.18 | -0.767
21 | O=S(=O)(NCCNC/C=C/c1ccc(Br)cc1)c1cccc2cnccc12 | -0.206 | 0.84 | 1.04 | 0.338
22 | CNC[C@@H](O)c1ccc(O)c(O)c1 [L-Adrenaline] | 0.865 | -0.107 | 0.705 | 0.13
23 | O=C(O)c1cc(/N=N/c2ccc(S(=O)(=O)Nc3ccccn3)cc2)ccc1O [Sulfasalazine] | -0.835 | 0.245 | -0.557 | -0.726
24 | NC1=N[C@@]2(c3cc(NC(=O)c4ccc(F)cn4)ccc3F)COC[C@H]2CS1 | 1.13 | -0.459 | -0.928 | -0.162
25 | Cc1ccc(OCC(O)C(C)NC(C)C)c2c1CCC2 (stereo not drawn) | 0.078 | -0.228 | -0.466 | -0.358
26 | CN[C@H]1CC[C@@H](c2ccc(Cl)c(Cl)c2)c2ccccc21 [Sertraline HCl] | -1.37 | -0.105 | -0.783 | 0.213
27 | CN1CCN(c2nc(C3=C(c4c[nH]c5ccccc45)C(=O)NC3=O)c3ccccc3n2)CC1 [Sotrastaurin] | -0.125 | 0.887 | 0.443 | 0.598

Part of the list above, with tabs:
Row	Compound	nucleus area z-score [1]	total neurite length per nucleus (z-score) [2]	nucleus roundness z-score [3]	KCl-induced FOS+/EGR-1+ double-positive nuclei fraction z-score [4]
16	CCN(Cc1ccncc1)C(=O)C(CO)c1ccccc1 (stereo not drawn) [Tropicamide]	0.738	1.27	0.0845	0.43
17	Cc1ccc(-n2nc(C(C)(C)C)cc2NC(=O)NCc2cc(F)ccc2Oc2ccc3c(cnn3CCO)c2)cc1 [Pexmetinib (ARRY-614)]	-0.308	0.713	0.623	-0.524
